Results: patent US8735149B2, “Motor neurons developed from stem cells” (Hadasit Medical Research Services & Development Limited, priority 2008, dated 2014)
At least one compound was matched to its structure with a doubt left. Some entries share one result that the patent states for a list of compounds.

Experiments:
Type in all cases: cell-based, human
[1] = system: hESC-derived neural precursors; experiment: Immunostaining for Olig-2 and Isl-1 after early neural induction and 3 weeks treatment; conditions: treatment for 3 weeks
[2] = system: hESC-derived neural spheres; experiment: RT-PCR of HOX genes (caudalization) after early neural induction and 7 days RA; conditions: early neural induction 10 days then 7 days treatment
[3] = system: hESC-derived neural precursors; experiment: RT-PCR of Olig2, Ngn2 and HB9 transcripts after early neural induction and 2-3 weeks treatment
Experimental: To develop spheres enriched for neural precursors, hESC colonies were removed intact from the feeders, 6 days after passage, with collagenase IV. They were cultured in low adherent culture dishes (HydroCell) in DMEM/F12 (1:1) basal medium (Invitrogen), supplemented with 2% B27, 2 mM glutamine, 50 units/ml penicillin, 50 μg/ml streptomycin (all from Invitrogen), and 20 ng/ml rh-FGF-2 (Peprotech). In some experiments the medium was also supplemented with noggin 600-700 ng/ml (both from R&D) for 14-16 days.
The medium was further supplemented with 1 μM retinoic acid (“RA”; Sigma) or 0.5 μM purmorphamine (“Pur”; a hedgehog agonist; Merck), or combination of Pur and RA, for 3 weeks.
Total RNA was extracted from free-floating clusters after 2 and 3 weeks of treatment with RA, Pur or both. Total RNA was isolated using TRI-reagent (Sigma) followed by treatment with RNase-free DNase (Ambion). cDNA synthesis was carried out using Moloney murine leukemia virus (M-MLV) reverse transcriptase and random primers, according to the manufacturers' instructions (Promega). To analyze relative expression of different mRNAs, the amount of cDNA was normalized based on the signal from GAPDH mRNA. PCR was carried out using standard protocols with Taq DNA Polymerase (Promega). Amplification conditions were as follows: denaturation at 94° C. for 30 seconds, annealing at 55° C. for 30 seconds, and extension at 72° C. for 45 seconds. The number of cycles varied between 30 and 40, depending on particular mRNA abundance. Primer sequences (forward and reverse 5′-3′) were as shown in Table 1 (sequence identification number (SEQ ID NO.) according to the Sequence Listing is also provided):
Following this initial induction of early neural differentiation, the role of purmorphamine (Pur) and retinoic acid (RA) in further specification towards a caudal and ventral fate was examined. The neural precursors were further cultured 2-3 weeks with Pur, RA, or the combination of RA & Pur as well as with FGF2 as a control. Caudalization and ventralization were studied by analyzing the expression of Olig-2, Ngn2 and HB9 transcripts (FIGS. 2A, 2B and 2C). […] Without being bound by theory, induction of expression of these transcription factors by RA after 3 weeks (lane 6 in FIGS. 2A and 2C) may be related to RA-mediated induction of endogenous SHH gene expression.

[4] = system: hESC-derived neural precursors; experiment: Immunostaining for HB9 after 1 week RA, 3 weeks treatment and 4-6 weeks maturation in MNM; conditions: RA 1 week, then 3 weeks treatment, then maturation 4-6 weeks in MNM
Experimental: Alternatively, the spheres were cultured in the same medium supplemented with 1 μM RA (Sigma) for 1 week. Followed by further culturing the spheres in neurobasal medium (Invitrogen) supplemented with 2 mM L-glutamine (Invitrogen), 50 units/ml penicillin (Invitrogen), 50 μg/ml streptomycin (Invitrogen), 1% non-essential amino-acids (Invitrogen), N2 (Invitrogen), 1 μM db-cAMP (Sigma) and 1 μM RA (Sigma), or 0.5 μM Pur (Merck), or combination of RA and Pur, for 2-3 weeks.
The spheres were then further cultured in the same neurobasal medium supplemented with 2 mM L-glutamine, 50 units/ml penicillin, 50 μg/ml streptomycin, 1% non-essential amino-acids, 1% N2 (all from Invitrogen), 1 μM db-cAMP and 10 ng/ml of BDNF, GDNF and IGF-I (all from Peprotech). This medium was designated as motor neuron medium (MNM). The clusters could be cultured in suspension in this medium for prolonged periods (5 months). At various time points along this period the cells were plated on 10 μg/ml Poly-D-Lysine (Sigma) and 5 μg/ml laminin (Sigma) for terminal differentiation in the presence or absence of the γ-secretase inhibitor [N-(3,5-Difluorophenacetyl)-L-alanyl]-S-phenylglycine t-butyl ester (DAPT; 1 μM, Sigma).
The following primary antibodies were used: polyclonal rabbit anti Isl1 (1:750, Abeam), mouse anti HB9 (1:50, DSHB), polyclonal goat anti CHAT (1:200, R&D), and goat anti olig2 (1:75, R&D). […]

| Compound | cells expressing Olig-2 [1] | expression of HOX B1 [2] | expression of HOX B6 [2] | expression of HOX C5 [2] | expression of HOX C8 [2] | expression of HB9 transcripts ([3]; after 2 weeks of treatment) | expression of Olig-2 transcripts ([3]; after 2 weeks of treatment) | expression of HB9 transcripts ([3]; after 3 weeks of treatment) | expression of Olig-2 transcripts ([3]; after 3 weeks of treatment) | cells expressing HB9 protein [4] |
| --- | --- | --- | --- | --- | --- | --- | --- | --- | --- | --- |
| c1ccc2c(Oc3nc(Nc4ccc(N5CCOCC5)cc4)c4ncn(C5CCCCC5)c4n3)cccc2c1 [Pur, purmorphamine] | 24-54 % of the cells |  |  |  |  |  |  |  |  |  |
| CC1=C(/C=C/C(C)=C/C=C/C(C)=C/C(=O)O)C(C)(C)CCC1 [RA, retinoic acid] | did not induce the expression | induced the expression | induced the expression | induced the expression | induced the expression | did not | did not | induced the expression | induced the expression | not expressed |
